According to the supplement of paper PMC10331698:
± gives the standard deviation of the averaged measurements. Most entries show no effect beyond the scatter of the controls.

Tests used:
Assay in all cases: level (log10 ratio to DMSO vehicle control); higher = higher biomarker level / cell amount than vehicle control
[1] = compound: C=CC(=O)OCC(F)(F)C(F)(F)C(F)(F)C(F)(F)C(F)(F)C(F)(F)C(F)(F)C(F)F [1H,1H,9H-Perfluorononyl acrylate]; conditions: 2200 nM; in DMSO
Method: (§1)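 BioMAP Diversity Plus panel of 12 human primary cell co-culture systems (3C, 4H, LPS, SAg, BT, BF4T, BE3C, CASM3C, HDF3CGF, KF3CT, MyoF, Mphg). Compounds were added 1 h before stimulation and left for 24 h (MyoF 48 h; BT 72 h for soluble read-outs or 6 d for IgG). Biomarkers were read by ELISA, cytotoxicity by SRB, PBMC viability and proliferation by Alamar Blue. Each well value was divided by the mean of 8 DMSO control wells on the same plate and log10 transformed; duplicate blinded samples were tested at 4 concentrations.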

[2] = compound: CCOC(=O)CC(=O)C(F)(F)C(F)(F)F [Ethyl pentafluoropropionyl acetate]; conditions: 2200 nM; in DMSO
Method: as §1

[3] = compound: FC(F)(F)C(F)(F)C(F)(F)C(F)(F)C(F)(F)C(F)(F)C(F)(F)C(F)(F)CCS [2-(Perfluorooctyl)ethanthiol]; conditions: in DMSO
Method: as §1

[4] = compound: N=C(N)C(F)(F)C(F)(F)C(F)(F)C(F)(F)C(F)(F)C(F)(F)C(F)(F)F [Perfluorooctanamidine]; conditions: in DMSO
Method: as §1

[5] = compound: O=C(CC(=O)C(F)(F)C(F)(F)C(F)(F)F)c1cccs1 [(Perfluorobutyryl)-2-thenoylmethane]; conditions: 2200 nM; in DMSO
Method: as §1

[6] = compound: O=C(O)C(F)(F)C(F)(F)C(F)(F)C(F)(F)C(F)(F)C(F)(F)C(F)(F)C(F)(F)C(F)(F)F [Perfluorodecanoic acid]; conditions: in DMSO
Method: as §1

[7] = compound: O=C(O)C(F)(F)C(F)(F)C(F)(F)C(F)(F)C(F)(F)C(F)(F)C(F)(F)C(F)(F)F [Perfluorononanoic acid]; conditions: 2200 nM; in DMSO
Method: as §1

[8] = compound: O=C(O)C(F)(F)C(F)(F)C(F)(F)C(F)(F)C(F)(F)C(F)(F)C(F)(F)F [Ammonium perfluorooctanoate]; conditions: 2200 nM; in DMSO
Method: as §1

[9] = compound: O=C(O)C(F)(F)C(F)(F)C(F)(F)C(F)(F)C(F)(F)C(F)(F)C(F)(F)F [Perfluorooctanoic acid]; conditions: 2200 nM; in DMSO
Method: as §1

[10] = compound: O=C(O)C(F)(F)OC(F)(F)C(F)(F)OC(F)(F)C(F)(F)OC(F)(F)C(F)(F)C(F)(F)C(F)(F)F [Perfluoro-3,6,9-trioxatridecanoic acid]; conditions: 2200 nM; in DMSO
Method: as §1

[11] = compound: O=C(O)C(F)(F)OC(F)(F)C(F)(F)OC(F)(F)F [Perfluoro-3,6-dioxaheptanoic acid]; conditions: 2200 nM; in DMSO
Method: as §1

[12] = compound: O=C(O)CCC(F)(C(F)(F)F)C(F)(F)F [4,4-bis(Trifluoromethyl)-4-fluoropropanoic acid]; conditions: 2200 nM; in DMSO
Method: as §1

[13] = compound: OCC(F)(F)C(F)(F)C(F)(F)C(F)(F)C(F)(F)C(F)(F)C(F)(F)C(F)(F)CO [1H,1H,10H,10H-Perfluorodecane-1,10-diol]; conditions: 2200 nM; in DMSO
Method: as §1

[14] = compound: OCC(F)(F)OC(F)(F)C(F)(F)OC(F)(F)C(F)(F)OC(F)(F)CO [1H,1H,11H,11H-Perfluorotetraethylene glycol]; conditions: 2200 nM; in DMSO
Method: as §1

Row | Test System | level (log10) [1] | level (log10) [2] | level (log10) ([3]; 740 nM) | level (log10) ([3]; 2200 nM) | level (log10) ([4]; 2200 nM) | level (log10) ([4]; 6700 nM) | level (log10) ([4]; 20000 nM) | level (log10) ([4]; 60000 nM) | level (log10) [5] | level (log10) ([6]; 2200 nM) | level (log10) ([6]; 6700 nM) | level (log10) ([6]; 20000 nM) | level (log10) [7] | level (log10) [8] | level (log10) [9] | level (log10) [10] | level (log10) [11] | level (log10) [12] | level (log10) [13] | level (log10) [14]
1 | MyoF:Decorin | -0.0045 ± 0.04 | -0.003 ± 0.031 | -0.0175 ± 0.026 | -0.01 ± 0.045 | 0.015 ± 0.044 | 0.004 ± 0.0099 | 0.0055 ± 0.013 | 0.07 | 0.0295 ± 0.04 | 0.017 ± 0.024 | 0.0055 ± 0.0064 | -0.071 ± 0.018 | 0.0095 ± 0.013 | 0.009 ± 0.0042 | -0.0045 ± 0.016 | 0.031 ± 0.064 | 0.009 ± 0.013 | -0.022 ± 0.017 | 0.018 ± 0.0042 | -0.008 ± 0.011
2 | BF4T:tPA | -0.0175 ± 0.021 | -0.0085 ± 0.0078 | -0.0175 ± 0.023 | -0.0315 ± 0.0035 | 0.041 ± 0.024 | 0.004 ± 0.014 | -0.027 ± 0.069 | 0.028 | -0.07 ± 0.041 | 0.0125 ± 0.011 | -0.0185 ± 0.005 | -0.18 ± 0.097 | -0.048 ± 0.0028 | 0.006 ± 0.031 | -0.03 ± 0.072 | -0.0265 ± 0.049 | -0.018 ± 0.062 | 0.001 ± 0.068 | -0.0245 ± 0.026 | 0.0055 ± 0.042
3 | BF4T:CD90 | 0.003 ± 0.013 | -0.0145 ± 0.026 | 0.008 ± 0.0028 | -0.009 ± 0.0028 | 0.0125 ± 0.015 | 0.0025 ± 0.015 | -0.0115 ± 0.005 | 0.042 | -0.0005 ± 0.0064 | 0.0105 ± 0.0021 | 0.003 ± 0.0042 | -0.0955 ± 0.0064 | -0.022 ± 0.0085 | 0.0005 ± 0.0078 | 0.0005 ± 0.026 | 0.0035 ± 0.011 | -0.008 ± 0.0042 | -0.004 ± 0.028 | -0.013 ± 0.0028 | -0.0025 ± 0.0092
4 | BT:sIL-2 | 0.0645 ± 0.091 | -0.029 ± 0.12 | 0.0075 ± 0.054 | -0.0275 ± 0.0078 | 0.0675 ± 0.036 | 0.0225 ± 0.057 | -0.01 ± 0.031 | -0.002 | 0.0145 ± 0.043 | -0.0145 ± 0.071 | 0.008 ± 0.092 | 0.118 ± 0.013 | -0.032 ± 0.071 | -0.013 ± 0.11 | 0.1125 ± 0.00071 | -0.043 ± 0.0085 | 0.0125 ± 0.035 | 0.0675 ± 0.005 | -0.0025 ± 0.044 | 0.044 ± 0.014
5 | KF3CT:PAI-I | 0.008 ± 0.058 | -0.012 ± 0.067 | -0.0175 ± 0.0035 | -0.0215 ± 0.0021 | 0 ± 0.024 | -0.001 ± 0.033 | -0.017 ± 0.044 | -0.008 | -0.0165 ± 0.0078 | -0.011 ± 0.013 | -0.0365 ± 0.023 | -0.144 ± 0.042 | 0.012 ± 0.016 | -0.0045 ± 0.0021 | -0.004 ± 0.016 | -0.023 ± 0.016 | 0.0165 ± 0.057 | -0.009 ± 0.016 | 0.016 ± 0.0071 | -0.008 ± 0.0099
6 | BE3C:PAI-I | -0.0675 ± 0.1 | 0.022 ± 0.02 | -0.072 ± 0.04 | -0.019 ± 0.031 | 0.026 ± 0.038 | 0.0015 ± 0.00071 | -0.006 ± 0.0099 | -0.021 | -0.137 ± 0.0099 | -0.029 ± 0.0042 | -0.0475 ± 0.013 | -0.4 ± 0.047 | -0.0195 ± 0.033 | -0.0025 ± 0.016 | 0.007 ± 0.045 | -0.113 ± 0.033 | -0.0275 ± 0.053 | 0.0095 ± 0.016 | 0.02 ± 0.0057 | 0.0215 ± 0.021
